For the experiment, the system named is HEK293T (UBE3A T485A transfected, BAR Wnt reporter). Put plainly: Renilla luciferase signal (cell health) relative to plate median (fold (linear ratio)); higher = higher Renilla signal. To be noted: 24 h. An outline of the steps:
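HEK293T cells were seeded at 4500 cells/well in white 384-well plates and grown in DMEM with 10% FBS at 37°C and 5% CO2. The cells were transfected using Fugene 6 with a BAR firefly luciferase Wnt reporter, TK-Renilla and an expression plasmid, and four hours later robots added the chemicals at 0.01–100 uM for 24 h before a Dual-Glo luciferase readout. Wnt activity was taken as the firefly/Renilla ratio and cell health as raw Renilla, each median-centred per plate. Values are averages of four biological replicates.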

Each structure is given as a SMILES string. Over roughly 1,100 compounds, “Renilla luciferase signal (cell health) relative to plate median” has its median near 0.97; the highest 2% begin near 1.6. This is a selection; strong and weak results do not stand in their true shares.

For `CCCCNC(=O)n1c(NC(=O)OC)nc2ccccc21` [Benomyl], the Renilla luciferase signal reads like this: (concentration: 0.01 uM) 0.968; (concentration: 0.1 uM) 0.99; (concentration: 1 uM) 0.92; (concentration: 10 uM) 0.28; (concentration: 100 uM) 0.279.
Turning to `OCCOCCO` [Diethylene glycol], the Renilla luciferase signal is, setting by setting: (concentration: 0.1 uM) 0.817; (concentration: 1 uM) 0.737; (concentration: 10 uM) 0.891; (concentration: 100 uM) 1.13.
Consider `C=C(C)[C@H]1Cc2c(ccc3c2O[C@@H]2COc4cc(OC)c(OC)cc4[C@@H]2C3=O)O1` [Rotenone], for which the Renilla luciferase signal stood at 0.488 (concentration: 0.01 uM); 0.285 (concentration: 0.1 uM); 0.0713 (concentration: 1 uM); 0.078 (concentration: 10 uM); 0.0265 (concentration: 100 uM).
Consider `O=C(N[C@H]1CN2CCC1CC2)c1ccc2c(c1)OCCO2`, for which the Renilla luciferase signal (concentration: 0.1 uM) turned out to be 1.05, the Renilla luciferase signal (concentration: 1 uM) is 1.19, the Renilla luciferase signal (concentration: 10 uM) worked out at 1.13 and the Renilla luciferase signal (concentration: 100 uM) is 1.2.
Take `COP(=O)(OC)C(O)C(Cl)(Cl)Cl` (configuration not stated) [Trichlorfon]: the Renilla luciferase signal (concentration: 0.01 uM) was found to be 1.04; the Renilla luciferase signal (concentration: 0.1 uM) was determined as 1.11; the Renilla luciferase signal (concentration: 1 uM) turned out to be 1.03; the Renilla luciferase signal (concentration: 10 uM) was 1.01; the Renilla luciferase signal (concentration: 100 uM) is 0.772.
For `O=C(O)C(Cl)Cl` [Dichloroacetic acid], the Renilla luciferase signal turned out to be 0.632 (concentration: 0.1 uM), 0.827 (concentration: 1 uM), 0.609 (concentration: 10 uM) and 0.702 (concentration: 100 uM).
For `CCC(C)(NC(=O)c1cc(Cl)c(C)c(Cl)c1)C(=O)CCl` (configuration not stated) [Zoxamide], the Renilla luciferase signal is, setting by setting: (concentration: 0.01 uM) 1.25; (concentration: 0.1 uM) 1.05; (concentration: 1 uM) 0.961; (concentration: 10 uM) 0.117; (concentration: 100 uM) 0.0244.
For `Oc1ccccc1Cl` [2-Chlorophenol], the Renilla luciferase signal (concentration: 0.1 uM) is 1.19, the Renilla luciferase signal (concentration: 1 uM) was found to be 1.26, the Renilla luciferase signal (concentration: 10 uM) is 1.14 and the Renilla luciferase signal (concentration: 100 uM) was 1.35.
The matching figures for `CCN1CCC2(CC1)COc1cc3c(cc12)N(C(=O)c1ccc(-c2ccc(-c4nnc(C)o4)cc2C)cc1)CC3.Cl`: 0.932, 0.666, 0.149 and 0.0466.
`CCc1cccc(CC)c1N(COC)C(=O)CCl` [Alachlor]: the Renilla luciferase signal by setting is: (concentration: 0.01 uM) 1.06; (concentration: 0.1 uM) 1.16; (concentration: 1 uM) 1.12; (concentration: 10 uM) 0.99; (concentration: 100 uM) 0.467.
Take `CCOC(=O)c1ccccc1C(=O)OCC` [Diethyl phthalate]: the Renilla luciferase signal was found to be 0.834 (concentration: 0.1 uM), 0.893 (concentration: 1 uM), 0.976 (concentration: 10 uM) and 1.05 (concentration: 100 uM).
On the same counts, the results for `CCCN(CCC)c1c([N+](=O)[O-])cc(C(C)C)cc1[N+](=O)[O-]` [Isopropalin] are 0.928, 0.823, 0.977 and 1.35.
`Clc1ccccc1-c1nnc(-c2ccccc2Cl)nn1` [Clofentezine]: the Renilla luciferase signal reads like this: (concentration: 0.01 uM) 0.775; (concentration: 0.1 uM) 0.807; (concentration: 1 uM) 0.957; (concentration: 10 uM) 1.03; (concentration: 100 uM) 1.03.
Regarding `CC(C)(c1ccccc1)c1ccc(O)c(C(C)(C)c2ccccc2)c1` [2,4-Bis(1-methyl-1-phenylethyl)phenol], the Renilla luciferase signal runs as follows: (concentration: 0.1 uM) 0.856; (concentration: 1 uM) 0.888; (concentration: 10 uM) 1.05; (concentration: 100 uM) 1.14.
Turning to `COc1cnc(OC)n2nc(NS(=O)(=O)c3c(OCC(F)F)cccc3C(F)(F)F)nc12` [Penoxsulam], the Renilla luciferase signal runs as follows: (concentration: 0.01 uM) 1.28; (concentration: 0.1 uM) 1.04; (concentration: 1 uM) 0.914; (concentration: 10 uM) 0.989; (concentration: 100 uM) 1.14.
On to `COc1ccc(C)cc1N` [2-Methoxy-5-methylaniline], for which the Renilla luciferase signal runs as follows: (concentration: 0.1 uM) 0.939; (concentration: 1 uM) 0.867; (concentration: 10 uM) 1.03; (concentration: 100 uM) 1.25.
The matching figures for `CC(C)(OO)c1ccccc1` [Cumene hydroperoxide]: 1.15, 1.12, 1.05 and 1.4.
On the same counts, the results for `CCCCCOC(=O)c1ccccc1C(=O)OCCCCC` [Dipentyl phthalate] are 0.95, 0.861, 0.91 and 1.18.
For the compound `Oc1ccc(Cl)cc1Cl` [2,4-Dichlorophenol], the Renilla luciferase signal came to 0.8 (concentration: 0.1 uM), 0.798 (concentration: 1 uM), 0.873 (concentration: 10 uM) and 0.949 (concentration: 100 uM).
On to `C[C@]12CCC(=O)C=C1CC[C@@H]1[C@@H]2CC[C@]2(C)C(=O)CC[C@@H]12` [4-Androstene-3,17-dione], for which the Renilla luciferase signal is, setting by setting: (concentration: 0.1 uM) 1.08; (concentration: 1 uM) 1.09; (concentration: 10 uM) 0.947; (concentration: 100 uM) 0.164.
On the same counts, the results for `CCOP(=S)(OCC)Oc1nc(Cl)c(Cl)cc1Cl` [Chlorpyrifos] are 0.74, 0.805, 0.866 and 0.73.
Regarding `C=CC(=O)OCCCCCC(C)C` [Isooctyl acrylate], the Renilla luciferase signal was 0.895 (concentration: 0.1 uM), 0.841 (concentration: 1 uM), 0.931 (concentration: 10 uM) and 1.07 (concentration: 100 uM).
On to `CC(C)C1(C)N=C(c2ncccc2C(=O)O)NC1=O` (configuration not stated) [Imazapyr], for which the Renilla luciferase signal by setting is: (concentration: 0.01 uM) 0.822; (concentration: 0.1 uM) 0.714; (concentration: 1 uM) 0.895; (concentration: 10 uM) 0.959; (concentration: 100 uM) 1.42.
The matching figures for `CNC(=O)Oc1cccc2ccccc12` [Carbaryl]: 0.778, 0.776, 0.818, 0.647 and 0.374.
Consider `C/C(=N\C#N)N(C)Cc1ccc(Cl)nc1` [Acetamiprid], for which the Renilla luciferase signal runs as follows: (concentration: 0.01 uM) 0.746; (concentration: 0.1 uM) 0.945; (concentration: 1 uM) 0.969; (concentration: 10 uM) 0.857; (concentration: 100 uM) 1.2.
Take `O=C(Nc1ccc2[nH]ccc2c1)c1cc2cc(F)ccc2n1Cc1cccc(F)c1`: the Renilla luciferase signal by setting is: (concentration: 0.1 uM) 1.07; (concentration: 1 uM) 1.02; (concentration: 10 uM) 0.543; (concentration: 100 uM) 0.0428.
With `O=C(O)C1C2CCC(O2)C1C(=O)O` (configuration not stated) [Endothal], the Renilla luciferase signal (concentration: 0.1 uM) was 0.975, the Renilla luciferase signal (concentration: 1 uM) is 0.898, the Renilla luciferase signal (concentration: 10 uM) was determined as 0.607 and the Renilla luciferase signal (concentration: 100 uM) was determined as 0.0298.
Regarding `CS(=O)(=O)c1cc(C(F)(F)F)ccc1C(=O)c1cnoc1C1CC1` [Isoxaflutole], the Renilla luciferase signal (concentration: 0.01 uM) was found to be 0.938; the Renilla luciferase signal (concentration: 0.1 uM) is 0.74; the Renilla luciferase signal (concentration: 1 uM) was 0.954; the Renilla luciferase signal (concentration: 10 uM) amounted to 0.778; the Renilla luciferase signal (concentration: 100 uM) was 2.79.
The matching figures for `COP(=S)(OC)Oc1ccc([N+](=O)[O-])cc1` [Methyl parathion]: 0.993, 0.941, 0.939, 1.07 and 0.963.
The matching figures for `CN1C2CC(OC(=O)C(CO)c3ccccc3)CC1C1OC12` (configuration not stated) [Scopolamine]: 0.78, 0.722, 0.931, 0.834 and 1.62.
For the compound `ClCCOCCCl` [Bis(2-chloroethyl) ether], the Renilla luciferase signal by setting is: (concentration: 0.1 uM) 1.05; (concentration: 1 uM) 0.922; (concentration: 10 uM) 0.95; (concentration: 100 uM) 1.25.

These data come from the supplement of paper PMC9254222.
